Record: PubChem BioAssay AID743121 (NCATS, 2013)
Purpose: 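Knock-downs that sensitise breast cancer cells to camptothecin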 (primary screen). Cell system: MDA-MB-231 cells, a human breast cancer line. Reagents: single siRNA against human genes, 20 nM siRNA (0.8 pmol per well). Duration: 120 h (drug added 48 h after transfection, read 72 h later). Challenge: camptothecin 20 nM (about EC30) for 72 h; vehicle 0.1% DMSO in parallel plates. Measurement: 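Cell viability by ATP luminescence (CellTiter-Glo) as % of non-targeting siRNA wells, and the log2 ratio of viability without drug over viability with camptothecin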. Scale: log2 vehicle/camptothecin viability: higher = stronger sensitisation to camptothecin; viability with camptothecin and viability without drug: higher = more viable cells. Rule for the call: 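Each gene scored by redundant siRNA activity (RSA) over its individual siRNA ratios; a gene is called active at p < 0.001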.
The deposit covers about 26,000 reagents; shown is a part drawn at random. 167 of all reagents (0.63%) count as active. 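Calls are per gene from RSA p-values that are not deposited; an individual active-marked siRNA can sensitise only weakly.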 Entries without a mark were called inactive. The numbers tell different reagents against one gene apart. Reagent sequences are not shown.

The first 2 entries, to show the layout:
Target gene	reagent no.	log2 vehicle/camptothecin viability	viability with camptothecin (% of control)	viability without drug (% of control)
PRCC (proline rich mitotic checkpoint control factor)	1	-0.432	81	60
PRCC (proline rich mitotic checkpoint control factor)	2	1.46	12.3	33.6

The listing, from the start:
Target gene	reagent no.	log2 vehicle/camptothecin viability	viability with camptothecin (% of control)	viability without drug (% of control)
PRCC (proline rich mitotic checkpoint control factor)	1	-0.432	81	60
PRCC (proline rich mitotic checkpoint control factor)	2	1.46	12.3	33.6
PRCC (proline rich mitotic checkpoint control factor)	3	0.0791	78.1	82.5
PRCC (proline rich mitotic checkpoint control factor)	4	-0.266	40.7	33.8
RAPSN (receptor associated protein of the synapse)	1	-0.00736	89.9	89.4
RAPSN (receptor associated protein of the synapse)	2	-0.115	53.7	49.6
RAPSN (receptor associated protein of the synapse)	3	-0.307	48	38.8
RAPSN (receptor associated protein of the synapse)	4	-0.0786	33.2	31.4
BCCIP (BRCA2 and CDKN1A interacting protein)	1	0.168	87.3	98.1
BCCIP (BRCA2 and CDKN1A interacting protein)	2	-0.222	94.6	81.1
BCCIP (BRCA2 and CDKN1A interacting protein)	3	-0.219	115	98.9
BCCIP (BRCA2 and CDKN1A interacting protein)	4	-0.213	101	87.3
ATP13A4 (ATPase 13A4)	1	-0.152	71.3	64.1
ATP13A4 (ATPase 13A4)	2	0.0391	45.5	46.7
ATP13A4 (ATPase 13A4)	3	0.121	100	109
HOXC13 (homeobox C13)	1	-0.0696	71.6	68.2
HOXC13 (homeobox C13)	2	0.0597	82.5	86
HOXC13 (homeobox C13)	3	0.187	26.1	29.8
SELPLG (selectin P ligand)	1	-0.401	60.4	45.7
SELPLG (selectin P ligand)	2	0.617	60.5	92.8
SELPLG (selectin P ligand)	3	-0.00883	82.1	81.6
GLI3 (GLI family zinc finger 3)	1	0.71	42.2	69.1
GLI3 (GLI family zinc finger 3)	2	-0.14	121	110
GLI3 (GLI family zinc finger 3)	3	-0.441	79.6	58.6
PGLYRP4 (peptidoglycan recognition protein 4)	1	-0.216	40.2	34.6
PGLYRP4 (peptidoglycan recognition protein 4)	2	0.242	19.1	22.5
PGLYRP4 (peptidoglycan recognition protein 4)	3	-0.231	118	100
PGLYRP4 (peptidoglycan recognition protein 4)	4	1.15	9.49	21
